Positions count from the first letter of the chain named. Results are given in words; binding and its absence hold for the method and conditions named. Binding seen in cells or lysates may run through a third protein. Some results given as binding are weak or reduced against the parent protein; the word gives no strength. For some of these results: Tags and fused reporters may be left off the sequences shown. Blank lines part the entries; values can stand above or below the binder they belong to.
Key:
[1] = biological target: T1, GST-Rasd1 T38N (mouse) (UniProt O35626); experiment: pull-down; COS-7 cells co-transfected with both plasmids (2 µg each); GST-tagged protein taken from the lysate with MagneGST particles; Western blot
T1 sequence: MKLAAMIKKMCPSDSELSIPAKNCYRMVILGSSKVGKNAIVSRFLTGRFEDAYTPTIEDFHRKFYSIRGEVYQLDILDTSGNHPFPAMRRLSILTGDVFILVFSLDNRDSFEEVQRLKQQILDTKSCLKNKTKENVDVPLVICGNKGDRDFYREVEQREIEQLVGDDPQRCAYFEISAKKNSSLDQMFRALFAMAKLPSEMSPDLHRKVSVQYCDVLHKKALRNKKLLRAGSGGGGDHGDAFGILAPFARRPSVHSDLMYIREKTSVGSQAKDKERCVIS

[2] = biological target: T2, GST-Rasd1 (mouse) (UniProt O35626); experiment: as above
T2 sequence: T1 sequence with N38T

[3] = biological target: T3, GST-Rasd1 A178V (mouse) (UniProt O35626); experiment: as above
T3 sequence: T1 sequence with N38T, A178V

[4] = biological target: T4, GST-Rasd1 G81A (mouse) (UniProt O35626); experiment: as above
T4 sequence: T1 sequence with N38T, G81A

[5] = biological target: T5, Rasd1 (endogenous, mouse brain) (mouse (endogenous in brain)) (UniProt O35626); experiment: co-IP; endogenous proteins, mouse brain lysate, goat polyclonal anti-Rasd1 or goat control IgG; blot with anti-NONO
T5 sequence: T1 sequence with N38T

[6] = substrate: T6, NONO (endogenous, HEK293T) (human (endogenous in HEK293T)) (UniProt Q15233); experiment: co-IP; endogenous proteins, HEK293T lysate (NP40 lysis buffer), rabbit polyclonal anti-NMT55/p54NRB or rabbit control IgG, rProtG agarose beads; blot with anti-Rasd1
T6 sequence: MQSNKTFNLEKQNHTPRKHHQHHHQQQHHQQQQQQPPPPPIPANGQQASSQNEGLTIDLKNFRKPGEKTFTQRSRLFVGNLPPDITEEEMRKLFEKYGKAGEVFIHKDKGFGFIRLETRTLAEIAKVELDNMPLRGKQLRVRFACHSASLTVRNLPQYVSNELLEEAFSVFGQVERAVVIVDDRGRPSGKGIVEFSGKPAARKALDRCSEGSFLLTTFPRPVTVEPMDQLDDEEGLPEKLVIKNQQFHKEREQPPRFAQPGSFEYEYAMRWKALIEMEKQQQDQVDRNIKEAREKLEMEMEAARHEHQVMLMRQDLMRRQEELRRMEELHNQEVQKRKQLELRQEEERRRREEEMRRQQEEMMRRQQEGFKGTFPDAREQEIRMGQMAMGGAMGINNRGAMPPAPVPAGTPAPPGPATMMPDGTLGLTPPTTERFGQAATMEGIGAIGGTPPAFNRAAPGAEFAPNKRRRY

[7] = biological target: T7, GST-NonO (mouse) (UniProt Q99K48); experiment: pull-down; COS-7 cells co-transfected with both plasmids (2 µg each); GST-tagged protein taken from the lysate with MagneGST particles; Western blot
T7 sequence: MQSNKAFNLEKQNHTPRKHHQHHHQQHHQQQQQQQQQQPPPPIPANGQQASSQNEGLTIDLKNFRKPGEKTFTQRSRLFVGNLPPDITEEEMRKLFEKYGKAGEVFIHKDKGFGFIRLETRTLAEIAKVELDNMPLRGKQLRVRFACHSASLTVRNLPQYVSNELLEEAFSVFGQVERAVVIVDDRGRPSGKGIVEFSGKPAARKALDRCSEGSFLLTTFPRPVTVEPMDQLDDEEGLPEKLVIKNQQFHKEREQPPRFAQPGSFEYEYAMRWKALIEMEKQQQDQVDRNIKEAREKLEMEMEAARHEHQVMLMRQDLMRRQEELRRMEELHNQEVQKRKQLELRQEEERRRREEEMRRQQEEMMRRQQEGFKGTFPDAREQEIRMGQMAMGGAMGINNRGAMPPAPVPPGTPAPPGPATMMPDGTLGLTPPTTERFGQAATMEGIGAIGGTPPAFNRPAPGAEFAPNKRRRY

binding [1]: binds | binding [2]: binds | binding [3]: binds | binding [4]: no binding
B1: NonO-V5 (protein, UniProt Q99K48 1-473)
chain: T7 sequence

binding [5]: binds
B2: NonO (endogenous, mouse brain) (protein, UniProt Q99K48 1-473)
chain: T7 sequence

binding [6]: binds
B3: RASD1 (endogenous, HEK293T) (protein, UniProt Q9Y272 1-281)
chain: MKLAAMIKKMCPSDSELSIPAKNCYRMVILGSSKVGKTAIVSRFLTGRFEDAYTPTIEDFHRKFYSIRGEVYQLDILDTSGNHPFPAMRRLSILTGDVFILVFSLDNRDSFEEVQRLRQQILDTKSCLKNKTKENVDVPLVICGNKGDRDFYREVDQREIEQLVGDDPQRCAYFEISAKKNSSLDQMFRALFAMAKLPSEMSPDLHRKVSVQYCDVLHKKALRNKKLLRAGSGGGGGDPGDAFGIVAPFARRPSVHSDLMYIREKASAGSQAKDKERCVIS

binding [7]: binds
B4: HA-Rasd1 (protein, UniProt O35626 1-280)
chain: T1 sequence with N38T

Source: publication PMC3168489
